Data as given in patent US8471063B2, “Michael systems as transglutaminase inhibitors” (Zedira GmbH, priority 2006, dated 2013).
Like-named read-outs stand apart in the source and are kept apart here. At least one compound was matched to its structure with a doubt left. *1 amine or outer side, *2 acyl side, *3 side chain or, on linkers, in order; H or OH if unused. Where a SMILES comes first, the peptide text is derived from it. [ ]: non-standard residue; d: D form. The star is where a group is joined. X5 = O=C(/C=C/CC[C@H](N[*:1])C(=O)[*:2])Oc1ccccc1; X6 = NC(=S)NCCC[C@H](N[*:1])C(=O)[*:2]; NHCH2CH2SO3H = O=S(=O)(O)CCN*; GABA = NCCCC(=O)O

Legend:
Assay type in all cases: biochemical
[1] = molecular target: T1, TG7 (Homo sapiens, UniProt Q96PF1); experiment: Transglutaminase inhibition, IC50 at TG7; details: Table 2
T1 construct: His6 (N); made in house; host or cells: E. coli BL21 (DE3)
T1 sequence (Q96PF1 1-710): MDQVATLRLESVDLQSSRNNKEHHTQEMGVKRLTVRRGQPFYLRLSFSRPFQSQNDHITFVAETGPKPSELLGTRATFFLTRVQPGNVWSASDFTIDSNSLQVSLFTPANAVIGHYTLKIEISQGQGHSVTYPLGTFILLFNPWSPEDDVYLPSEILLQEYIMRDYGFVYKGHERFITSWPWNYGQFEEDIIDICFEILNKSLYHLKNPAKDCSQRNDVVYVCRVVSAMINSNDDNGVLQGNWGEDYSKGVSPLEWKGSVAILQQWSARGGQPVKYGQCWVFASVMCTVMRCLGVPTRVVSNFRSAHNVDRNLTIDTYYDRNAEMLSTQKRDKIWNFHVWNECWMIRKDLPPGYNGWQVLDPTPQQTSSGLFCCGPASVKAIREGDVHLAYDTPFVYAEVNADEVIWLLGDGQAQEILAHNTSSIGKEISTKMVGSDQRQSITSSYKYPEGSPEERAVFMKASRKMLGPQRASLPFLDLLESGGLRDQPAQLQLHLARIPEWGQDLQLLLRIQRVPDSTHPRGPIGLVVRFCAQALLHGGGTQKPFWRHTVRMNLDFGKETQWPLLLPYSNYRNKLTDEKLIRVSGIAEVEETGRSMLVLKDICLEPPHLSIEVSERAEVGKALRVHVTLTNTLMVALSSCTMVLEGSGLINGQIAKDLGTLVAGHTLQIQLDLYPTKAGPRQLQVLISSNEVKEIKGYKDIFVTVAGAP
Experimental: (§1) The genes encoding for TG6 and TG7 were amplified from TG6-cDNA and TG7-cDNA, respectively, with PCR according to standard procedures (both state-of-the-art according to U.S. Pat. No. 7,052,890). Through the primers used a NdeI restriction site and six histidine codons were inserted at the 5′ end and a BgIII restriction site (TG6) and a HindIII restriction site (TG7) at the 3′ end.
(§2) The Tg6 PCR product was treated with the restriction endonucleases NdeI and BgIII. In the NdeI and BamH I restricted vector pET 3a was inserted. The Tg7 PCR product was treated with the restriction endonucleases NdeI and HindIII. and in the likewise restricted vector pET 28b was inserted.
(§3) The E. coli strain BL21 (DE3) (Novagen, Darmstadt) was transformed with the obtained plasmids. A culture of one strain each was induced with IPTG and harvested. After cell disruption under high pressure homogenisation the disrupts were centrifuged and the supernatants were purified via metal ion affinity chromatography on HiTrap chelating HP columns (GE-Helathcare). The purified proteins TG6 and TG7 were analyzed by SDS-PAGE with Coomassie staining. All procedures used for the production of TG6 and TG7 are well known to the one skilled in the art.

[2] = molecular target: T2, TG6 (Homo sapiens, UniProt O95932); experiment: Transglutaminase inhibition, IC50 at TG6; details: Table 2
T2 construct: His6 (N); made in house; host or cells: E. coli BL21 (DE3)
T2 sequence (O95932 1-706): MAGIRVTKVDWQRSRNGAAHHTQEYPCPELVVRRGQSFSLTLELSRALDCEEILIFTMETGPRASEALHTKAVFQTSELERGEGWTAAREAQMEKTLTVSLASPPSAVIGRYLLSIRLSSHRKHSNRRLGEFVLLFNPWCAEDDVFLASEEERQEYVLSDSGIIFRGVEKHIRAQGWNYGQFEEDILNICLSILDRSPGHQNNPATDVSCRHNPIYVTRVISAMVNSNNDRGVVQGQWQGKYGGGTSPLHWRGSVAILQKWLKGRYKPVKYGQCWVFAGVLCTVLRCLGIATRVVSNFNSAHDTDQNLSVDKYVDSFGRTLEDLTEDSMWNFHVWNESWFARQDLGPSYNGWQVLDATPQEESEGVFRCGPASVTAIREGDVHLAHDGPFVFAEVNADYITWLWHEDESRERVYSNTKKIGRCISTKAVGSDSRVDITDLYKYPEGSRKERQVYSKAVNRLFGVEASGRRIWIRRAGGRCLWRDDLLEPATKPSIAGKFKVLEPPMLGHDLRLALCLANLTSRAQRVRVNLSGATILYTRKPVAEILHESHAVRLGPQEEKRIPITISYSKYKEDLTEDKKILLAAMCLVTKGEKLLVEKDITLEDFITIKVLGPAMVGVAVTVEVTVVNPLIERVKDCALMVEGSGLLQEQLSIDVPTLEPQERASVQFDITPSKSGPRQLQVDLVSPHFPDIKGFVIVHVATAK
Experimental: as §1, §2, §3

[3] = molecular target: T3, TG3 (Homo sapiens, UniProt Q08188); experiment: Transglutaminase inhibition, IC50 at TG3; details: Table 2
T3 sequence (Q08188 1-693): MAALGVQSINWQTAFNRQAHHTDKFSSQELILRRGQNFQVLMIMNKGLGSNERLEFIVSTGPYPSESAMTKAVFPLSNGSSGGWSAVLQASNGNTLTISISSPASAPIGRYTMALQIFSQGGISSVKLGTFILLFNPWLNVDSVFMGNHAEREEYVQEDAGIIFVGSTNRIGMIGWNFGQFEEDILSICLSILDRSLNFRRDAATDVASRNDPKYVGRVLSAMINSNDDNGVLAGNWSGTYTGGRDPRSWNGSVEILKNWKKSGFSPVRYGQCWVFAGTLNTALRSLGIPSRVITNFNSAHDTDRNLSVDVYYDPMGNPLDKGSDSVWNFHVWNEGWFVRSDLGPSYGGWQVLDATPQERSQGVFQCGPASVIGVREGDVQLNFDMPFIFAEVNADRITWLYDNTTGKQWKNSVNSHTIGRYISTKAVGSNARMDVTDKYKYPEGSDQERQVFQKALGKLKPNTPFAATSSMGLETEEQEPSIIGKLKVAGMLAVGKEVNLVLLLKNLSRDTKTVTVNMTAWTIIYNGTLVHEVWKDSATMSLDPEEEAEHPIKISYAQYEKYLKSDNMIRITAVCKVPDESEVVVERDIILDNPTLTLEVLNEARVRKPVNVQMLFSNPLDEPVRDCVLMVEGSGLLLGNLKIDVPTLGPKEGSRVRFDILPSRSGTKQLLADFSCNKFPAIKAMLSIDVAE

[4] = molecular target: T4, recombinant human tissue transglutaminase (His6-rh-TG2) (Homo sapiens, UniProt P21980); experiment: Inactivation of human tissue transglutaminase, fluorescence assay, IC50
T4 sequence (P21980 1-687): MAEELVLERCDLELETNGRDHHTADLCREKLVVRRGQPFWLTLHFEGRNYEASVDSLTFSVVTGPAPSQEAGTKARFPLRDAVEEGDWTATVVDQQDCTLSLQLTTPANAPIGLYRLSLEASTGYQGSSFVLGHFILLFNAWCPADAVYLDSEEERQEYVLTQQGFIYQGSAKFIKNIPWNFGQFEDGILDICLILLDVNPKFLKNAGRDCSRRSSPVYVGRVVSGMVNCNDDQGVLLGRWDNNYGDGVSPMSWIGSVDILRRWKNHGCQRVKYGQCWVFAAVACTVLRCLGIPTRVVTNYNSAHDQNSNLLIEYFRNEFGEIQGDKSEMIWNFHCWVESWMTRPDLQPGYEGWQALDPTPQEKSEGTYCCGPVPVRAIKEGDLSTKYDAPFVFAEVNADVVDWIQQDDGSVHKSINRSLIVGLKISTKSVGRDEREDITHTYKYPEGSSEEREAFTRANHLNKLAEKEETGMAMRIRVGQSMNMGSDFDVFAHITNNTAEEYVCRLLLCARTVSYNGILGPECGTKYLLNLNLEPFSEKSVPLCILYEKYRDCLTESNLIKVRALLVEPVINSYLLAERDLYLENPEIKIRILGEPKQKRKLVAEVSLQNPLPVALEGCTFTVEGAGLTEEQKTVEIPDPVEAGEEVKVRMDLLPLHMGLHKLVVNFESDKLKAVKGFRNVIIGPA
Experimental: 250 μg of lyophilized his-tagged recombinant human tissue transglutaminase (His6-rh-TG2) are reconstituted by the addition of 150 μl of water (resulting buffer 50 mM of NaH2PO4, 150 mM of NaCl, pH=8).
A 10 mM inhibitor stock solution in DMSO is prepared and diluted with buffer (50 mM of Tris-HCl, 10 mM of CaCl2, 5 mM of DTT, pH=7.5, respectively) to the 20-fold of the concentration desired for the inhibition mixture (at least 1/50 dilution resulting in 2% DMSO concentration).
900 μl of an assay solution composed of 55.56 mM of Tris, 11.11 mM of CaCl2, 0.11% PEG8000, 5.56 mM of DTT, 5.56 mM of glycine methyl ester and 50 μM of Abz-APE(CAD-DNP)QEA-OH, (patent number:), pH=7.5 are placed in a cuvette and brought to a temperature of 37° C. in the measuring cell of a spectrophotometer. 50 μl of the respective inhibitor solution are added to said solution (resulting in a concentration of less than 0.2% of DMSO in the mixture). […]
The resulting enzyme activity was measured by analyzing the slope of the straight line obtained by the increase in fluorescence.
DMSO is used instead of inhibitor stock solution in order to determine the non-inhibited enzyme activity. IC50 values are determined by plotting the resulting enzyme activity against the logarithm of the inhibitor concentration. […]

| Structure (SMILES) | IC50 [1] | IC50 [2] | IC50 [3] | IC50 ([4]; Table 1, 5 min preincubation, 37° C., read-out: IC50 value [TG2]) | IC50 ([4]; running text b783, read-out: IC50 at TG2) |
| --- | --- | --- | --- | --- | --- |
| CC(C)[C@H](NC(=O)[C@@H]1CCCN1C(=O)[C@H](CC(=O)O)NC(=O)[C@H](CC/C=C/C(=O)Oc1ccccc1)NC(=O)CNC(=O)CCCN)C(=O)N[C@@H](CCCNC(N)=S)C(=O)NCC(=O)NCCS(=O)(=O)O [Compound 3.2.15] (H-[GABA]G[X5]DPV[X6]G-NHCH2CH2SO3H; N-terminus assumed) | 14 µM | 16 µM | 1.5 µM | – | – |
| CC(C)OC(=O)/C=C/CC[C@H](NC(=O)[C@@H]1C=CCN1C(=O)C(N)N)C(=O)N1Cc2[nH]c3ccccc3c2C[C@H]1C(=O)N[C@H](C(=O)O)C(C(=O)O)C(=O)O [Compound 43] | – | – | – | 1.9 µM | 5 µM |
